# From PubChem BioAssay AID2685 (National Center for Advancing Translational Sciences (NCATS), 2010)
# Some of the results follow. Shown are side measurements of this screen, not its main read-out; they come without a call. The list favours compounds with an active or inconclusive main result. The note in brackets gives the kind of curve behind each potency; many fits are weak.
# Experiment: qHTS Assay for Lipid Storage Modulators in Drosophila S3 Cells;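 for cell number change: cells counted by Cell Tracker Red CMTPX staining in the red channel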
# Conditions: BODIPY lipid droplet fluorescence, 18-24 h; for cell number change: measured here: cell count max response, cells fed with added oleic acid
# In short: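 Drosophila S3 cells loaded with oleic acid (400 uM, as added) and compounds at several concentrations; lipid droplets imaged by 488-nm laser-scanning cytometry, 500–530 nm intensity and object ratio to cell channel. Percent activity normalized to 20 uM Triacsin C.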
# [1] = measured here: lipid fluorescence (Fed channel) AC50, cells fed with added oleic acid
# [2] = measured here: cell number channel AC50, cells fed with added oleic acid
structure (smiles),measurement,setting,value
CCOCCCNC(=O)CN1CCN(c2ccc(F)cc2)CC1,cell number change,,4.08%
COc1ccc(C(=O)COC(=O)c2cc3ccccc3oc2=O)c(OC)c1,cell number change,,-12.1%
same,AC50,[1],"0.58 µM [falling, full curve]"
O=S(=O)(NC1=NCCCCC1)c1cccs1,cell number change,,-1.17%
O=C(CSc1ccccc1)OCC(=O)N1CCN(C(=O)c2ccco2)CC1,cell number change,,7.21%
same,AC50,[2],"4.11 µM [falling, single point]"
same,AC50,[1],"4.61 µM [falling, single point]"
Cc1cc(F)ccc1NC(=O)c1cc(S(=O)(=O)N2CCc3ccccc32)cn1C,cell number change,,15.6%
same,AC50,[1],"4.61 µM [rising, full curve, poor fit]"
CCCCCOc1ccc(/C(C)=N/NC2=NCCN2)cc1,cell number change,,1.1%
c1ccc2c(c1)CCOC2CNCCCN1CCCCC1 (configuration not stated),cell number change,,0.261%
same,AC50,[1],"0.461 µM [falling, single point]"
CCCn1c(=O)c(C(=O)NCc2cccnc2)c(O)c2ccccc21,cell number change,,38.6%
same,AC50,[2],"1.64 µM [rising, full curve, poor fit]"
Cc1ccc(S(=O)(=O)NCc2ccncc2)cc1C,cell number change,,-45.1%
same,AC50,[2],"8.2 µM [falling, partial curve]"
same,AC50,[1],"9.2 µM [falling, partial curve]"
Cc1c(C(=O)NCc2ccccn2)oc2ccc(Br)cc12,AC50,[1],"0.0326 µM [rising, full curve, poor fit]"
CC(C)c1ccc(CN(C(=O)c2cc3ccccc3oc2=O)C2CCS(=O)(=O)C2)cc1 (configuration not stated),cell number change,,33.7%
same,AC50,[2],"3.26 µM [rising, full curve, poor fit]"
Cc1cc(C(F)(F)F)n2ncc(-c3ccc(F)cc3)c2n1,cell number change,,109%
same,AC50,[2],"5.17 µM [rising, full curve]"
same,AC50,[1],"2.31 µM [rising, partial curve]"
CC12CC3(C)CC(C)(C1)CC(C(=O)NC(=S)NC(C)(C)C)(C2)C3,cell number change,,-25.3%
same,AC50,[1],"1.16 µM [rising, full curve]"
CCCN(Cc1ccccc1)C(=S)Nc1cccc(C(F)(F)F)c1,cell number change,,30.1%
same,AC50,[2],"18.4 µM [rising, single point]"
O=C(Nc1ccc2c(c1)OCO2)c1cccc(Cl)c1,cell number change,,4.52%
same,AC50,[1],"18.4 µM [rising, partial curve]"
CC(=O)c1ccc(OCCCC(=O)Nc2cc(S(=O)(=O)N3CCCCC3)ccc2C)cc1,AC50,[2],"0.291 µM [rising, partial curve, poor fit]"
Clc1ccccc1Cn1nnc2c(NCC3CC3)ncnc21,cell number change,,-21.5%
same,AC50,[1],"18.4 µM [falling, single point]"
C=CCCC(=O)N1CCCC(Cc2cccc(Cl)c2)(C(=O)OCC)C1 (configuration not stated),cell number change,,20.3%
COc1ccc(C(C(=O)NC2CCCC2)N(C(=O)c2snc(C(N)=O)c2N)c2ccccc2OC)cc1OC (configuration not stated),cell number change,,-10.3%
same,AC50,[1],"29.1 µM [falling, single point]"
CCCCN1/C(=C/c2ccc3ccccc3[n+]2CC)Sc2ccccc21,cell number change,,-49.8%
same,AC50,[2],"10.3 µM [falling, partial curve]"
same,AC50,[1],"3.26 µM [falling, full curve]"
CC1CN(C(=S)Nc2ccc(Cl)cc2)CC(C)O1 (configuration not stated),cell number change,,-6.08%
CCN1C(=O)c2ccc(C(=O)Nc3nccs3)cc2C1=O,AC50,[1],"6.51 µM [rising, single point]"
CCn1c(CCC(=O)Nc2cc(F)ccc2C)nc2cc(S(=O)(=O)N(C)C)ccc21,cell number change,,7.76%
same,AC50,[2],"0.0517 µM [rising, full curve, poor fit]"
same,AC50,[1],"0.0731 µM [rising, full curve, poor fit]"
O=P(c1ccccc1)(c1ccccc1)c1ccc(O)cc1,cell number change,,26.4%
Cc1cc(NC(=O)CS(=O)(=O)c2cn(C)c3ccccc23)no1,cell number change,,5.15%
same,AC50,[1],"0.13 µM [falling, full curve, poor fit]"
COc1cc(/C=C2\SC(=Nc3c(C)n(C)n(-c4ccccc4)c3=O)NC2=O)ccc1O,cell number change,,12.3%
same,AC50,[1],"4.11 µM [rising, full curve, poor fit]"
COc1ccccc1/C=C/C(=O)NCC(=O)N/N=C(/C)c1ccc(Cl)cc1,cell number change,,-1.79%
same,AC50,[1],"1.16 µM [rising, full curve]"
COc1cccc(NC(=O)COC(=O)c2cc(S(=O)(=O)N3CCOCC3)ccc2C)c1,cell number change,,110%
same,AC50,[2],"0.00461 µM [rising, full curve, poor fit]"
CN(C(=O)CSc1nnc(C(F)(F)F)n1N)C1CCS(=O)(=O)C1 (configuration not stated),cell number change,,-21.6%
same,AC50,[1],"20.6 µM [falling, single point]"
Cc1cc(-c2nnc3n2N=C(c2ccc(F)cc2)CS3)n[nH]1,AC50,[2],"6.51 µM [rising, single point]"
same,AC50,[1],"1.84 µM [rising, partial curve, poor fit]"
CN(C)S(=O)(=O)c1ccc(C(=O)OCCCN=C2NS(=O)(=O)c3ccccc32)cc1,cell number change,,-24.5%
same,AC50,[1],"4.61 µM [falling, single point]"
O=C(CO/N=C/c1ccc(OC(F)F)cc1)NCc1ccco1,cell number change,,-15%
same,AC50,[1],"0.58 µM [falling, full curve]"
Cc1ccsc1/C=N/n1c(C2CCCCC2)n[nH]c1=S,cell number change,,-55.4%
same,AC50,[2],"13 µM [falling, partial curve]"
same,AC50,[1],"13 µM [falling, partial curve]"
O=C(Nc1ccc(-c2cn3ccsc3n2)cc1)c1ccc(F)c(S(=O)(=O)N2CCOCC2)c1,AC50,[2],"1.46 µM [rising, partial curve]"
same,AC50,[1],"0.731 µM [rising, full curve]"
Cc1ccc(-c2nc(CS(=O)CC(=O)NCc3ccc(Cl)cc3)c(C)o2)cc1 (configuration not stated),cell number change,,-35%
same,AC50,[2],"29.1 µM [falling, single point]"
same,AC50,[1],"29.1 µM [falling, single point]"
O=C(COc1ccccc1Cl)NCCCNC(=O)c1cnccn1,cell number change,,32.9%
same,AC50,[2],"3.66 µM [rising, full curve, poor fit]"
Cc1cc(C)c(NS(=O)(=O)c2ccc(Cl)c(C(=O)O)c2)c(C)c1,cell number change,,2.43%
same,AC50,[1],"0.0651 µM [rising, full curve, poor fit]"
COc1ccc(C(=O)Nc2nc(CC(=O)NCCc3ccccc3OC)cs2)cc1,AC50,[2],"6.51 µM [rising, single point]"
COc1ccc(-c2nn(-c3ccccc3)cc2C(=O)O)cc1N,cell number change,,-0.825%
same,AC50,[1],"6.51 µM [falling, single point]"
O=C(CCCC(=O)NCc1ccccc1)NCc1ccccc1,cell number change,,-9.91%
same,AC50,[1],"23.1 µM [falling, partial curve, poor fit]"
COc1ccc(/C=N/Nc2ncc(Br)cn2)c(OC)c1,cell number change,,-43%
same,AC50,[2],"11.6 µM [falling, partial curve]"
COC(=O)C1=C(C(=O)OC)[C@@H]2Nc3ccccc3[C@@]23C[C@@H](C(=O)OC)N=C3N1,cell number change,,-11.9%
O=C(c1ccc2c(=O)n(Cc3ccccc3Cl)c(=S)[nH]c2c1)N1CCOCC1,cell number change,,11.6%
same,AC50,[1],"23.1 µM [rising, partial curve]"
CCOc1ccccc1N1CC(C(=O)Nc2ccccc2N2CCOCC2)CC1=O (configuration not stated),cell number change,,0.115%
same,AC50,[1],"6.51 µM [rising, single point]"
Cc1ccnc(NC(=O)c2ccc(Cl)c(NC(=O)c3ccccc3C)c2)c1,AC50,[1],"29.1 µM [falling, single point]"
O=C(NC1CC1)c1sc2cc([N+](=O)[O-])ccc2c1Cl,cell number change,,-14.2%
same,AC50,[2],"0.461 µM [falling, single point]"
same,AC50,[1],"0.517 µM [falling, full curve, poor fit]"
COc1ccc(CC(=O)c2ccc(OC)c(OC)c2)cc1,AC50,[1],"2.31 µM [rising, full curve, poor fit]"
CC(=O)N1CCOc2ccc(S(=O)(=O)Nc3ccc(C)cn3)cc21,AC50,[1],"0.231 µM [falling, full curve, poor fit]"
CCCNC(=O)CSc1nc2ccc(OCC)cc2s1,cell number change,,37.7%
same,AC50,[2],"9.2 µM [rising, partial curve, poor fit]"
COc1ccc2c(C)nc(Nc3nc(C)c(C)c(=O)[nH]3)nc2c1,cell number change,,-7.61%
same,AC50,[1],"20.6 µM [falling, partial curve, poor fit]"
Cc1ccc(S(=O)(=O)N2CCC(C(=O)NCc3ccccc3Cl)CC2)cc1,cell number change,,87.3%
same,AC50,[2],"16.4 µM [rising, partial curve]"
OCc1cc(-c2ccccn2)no1,cell number change,,-4.59%
same,AC50,[1],"0.092 µM [falling, full curve, poor fit]"
O=C(COc1ccccc1)N1CCN=C1SCc1ccc(F)cc1,AC50,[2],"2.31 µM [rising, single point]"
O=C(NCC1CCCO1)c1nn2c(C(F)(F)F)cc(-c3ccc(Br)o3)nc2c1Br (configuration not stated),cell number change,,-14.3%
same,AC50,[1],"0.206 µM [rising, single point]"
O=C(NNc1ccccc1)/C(=C\c1cccnc1)NC(=O)c1ccccc1,cell number change,,-33.8%
same,AC50,[2],"14.6 µM [falling, partial curve]"
Cc1ccc(S(=O)(=O)NC2CC(C)(C)NC(C)(C)C2)c(C)c1C,cell number change,,-5.47%
same,AC50,[1],"29.1 µM [rising, single point]"
CC(C)=NNc1nc2sc3c(c2c(=O)[nH]1)CC(C)(C)OC3,cell number change,,-8.82%
same,AC50,[1],"0.58 µM [falling, partial curve, poor fit]"
COc1ccc([C@@H](NC(=O)OC(C)(C)C)C(=O)OC(C)(C)C)cc1,cell number change,,-8.84%
O=C(NC(=S)N1CCN(c2ccc(F)cc2)CC1)C12CC3CC(CC(C3)C1)C2,cell number change,,-66.7%
same,AC50,[2],"29.1 µM [falling, single point]"
same,AC50,[1],"0.231 µM [falling, full curve, poor fit]"
Cc1ccc(C(C(=O)NCc2ccco2)N(C(=O)CNC(=O)c2cccs2)c2ccc(C)cc2C)cc1 (configuration not stated),cell number change,,40.8%

# A second format for some results above:
structure (smiles)	measurement	setting	value
c1ccc2c(c1)CCOC2CNCCCN1CCCCC1 (configuration not stated)	AC50	[1]	0.461 µM [falling, single point]
CCCn1c(=O)c(C(=O)NCc2cccnc2)c(O)c2ccccc21	cell number change		38.6%
same	AC50	[2]	1.64 µM [rising, full curve, poor fit]
Cc1ccc(S(=O)(=O)NCc2ccncc2)cc1C	cell number change		-45.1%
same	AC50	[2]	8.2 µM [falling, partial curve]
same	AC50	[1]	9.2 µM [falling, partial curve]
Cc1c(C(=O)NCc2ccccn2)oc2ccc(Br)cc12	AC50	[1]	0.0326 µM [rising, full curve, poor fit]
CC(C)c1ccc(CN(C(=O)c2cc3ccccc3oc2=O)C2CCS(=O)(=O)C2)cc1 (configuration not stated)	cell number change		33.7%
same	AC50	[2]	3.26 µM [rising, full curve, poor fit]
Cc1cc(C(F)(F)F)n2ncc(-c3ccc(F)cc3)c2n1	cell number change		109%
same	AC50	[2]	5.17 µM [rising, full curve]
same	AC50	[1]	2.31 µM [rising, partial curve]
CC12CC3(C)CC(C)(C1)CC(C(=O)NC(=S)NC(C)(C)C)(C2)C3	cell number change		-25.3%
same	AC50	[1]	1.16 µM [rising, full curve]
CCCN(Cc1ccccc1)C(=S)Nc1cccc(C(F)(F)F)c1	cell number change		30.1%
same	AC50	[2]	18.4 µM [rising, single point]
O=C(Nc1ccc2c(c1)OCO2)c1cccc(Cl)c1	cell number change		4.52%
same	AC50	[1]	18.4 µM [rising, partial curve]
CC(=O)c1ccc(OCCCC(=O)Nc2cc(S(=O)(=O)N3CCCCC3)ccc2C)cc1	AC50	[2]	0.291 µM [rising, partial curve, poor fit]
Clc1ccccc1Cn1nnc2c(NCC3CC3)ncnc21	cell number change		-21.5%
same	AC50	[1]	18.4 µM [falling, single point]
C=CCCC(=O)N1CCCC(Cc2cccc(Cl)c2)(C(=O)OCC)C1 (configuration not stated)	cell number change		20.3%
COc1ccc(C(C(=O)NC2CCCC2)N(C(=O)c2snc(C(N)=O)c2N)c2ccccc2OC)cc1OC (configuration not stated)	cell number change		-10.3%
same	AC50	[1]	29.1 µM [falling, single point]
CCCCN1/C(=C/c2ccc3ccccc3[n+]2CC)Sc2ccccc21	cell number change		-49.8%
same	AC50	[2]	10.3 µM [falling, partial curve]
same	AC50	[1]	3.26 µM [falling, full curve]
CC1CN(C(=S)Nc2ccc(Cl)cc2)CC(C)O1 (configuration not stated)	cell number change		-6.08%
CCN1C(=O)c2ccc(C(=O)Nc3nccs3)cc2C1=O	AC50	[1]	6.51 µM [rising, single point]
CCn1c(CCC(=O)Nc2cc(F)ccc2C)nc2cc(S(=O)(=O)N(C)C)ccc21	cell number change		7.76%
same	AC50	[2]	0.0517 µM [rising, full curve, poor fit]
same	AC50	[1]	0.0731 µM [rising, full curve, poor fit]
O=P(c1ccccc1)(c1ccccc1)c1ccc(O)cc1	cell number change		26.4%
